# Source: publication PMC10354159
# Key:
# [1] = target: insulin-like growth factor-1 receptor (mouse (endogenous in C57BL/6J tissue)); assay: co-IP; cortex lysate (RIPA buffer) of female C57BL/6J mice given recombinant human insulin 10 min before collection; IR or IGF1R precipitated with antibody overnight at 4 °C and protein-AG beads, blot for Inceptor
# [2] = target: insulin-like growth factor-1 receptor (mouse (endogenous in C57BL/6J tissue)); assay: co-IP; pancreas lysate (RIPA buffer) of female C57BL/6J mice given recombinant human insulin 10 min before collection; IR or IGF1R precipitated with antibody overnight at 4 °C and protein-AG beads, blot for Inceptor
binder,measurement,setting,value
"Inceptor (protein, UniProt A2AFS3 36-1009) FQVTLGTGPELHACKESEYHFEYTACDSTGSRWRVAVPHSPGLCTSLPDPVKGTECSFSCNAGEFLDMKDQSCKPCAEGRYSLGTGIRFDEWDELPHGFASLSANLEVDDSISESTENCTSSKWVPRGDYIASNTDECTATLMYAVNLKQSGTVNFEYYYPDSSIIFEFFVQNDQCQPSADDSRWMKTTEKGWVELNRGNNVLYWRTTAFSVWSKVSKPVLVRNIAITGVAYTSECFPCKPGTYAAKQGSPFCKLCPANYYSNKGETSCHPCDADKYSEKGSSTCKVRPACTDKDYFYTHTACDAQGETQLMYKWAIPKICGEDLEGAVKLPASGVKTRCPPCNPGFFKTDNSTCEPCPYGSYSNGSDCTHCPAGTEPAVGFEYKWWNTLPSNMETTVLSGINFEYKGLTGWEVAGDHIYTAVGASDNDFMILTLVVPGFRPPQSVVADTENKEVARITFVFETICSVNCELYFMVGMNSRTNTPVETWKGTKGKQSYTYTIEENATVSFTWAFQRTTLHETGRKYTNDVAKIYSINVTNVMGGVASYCRPCALEASDLGSSCTSCPAGHYINRDSGTCHLCPSNTILKAHQPYGAQACVPCGPGTKNNKIHSLCYNDCTFSRNTPSRIFNYNFSALAGTVSLAGVPSFTSKGLKYFHHFTLSLCGNQGKKMAVCTDNVTDLRIPDGEAGFSKSVTAYVCQVVIIPSEVMGYKAGVSSQPVSLADRLVGVSTDMTLEGIVSPVELFHPETSGIPDIVFFFRSNDVTQSCSSGRSTTIRLRCNPMKAAPGTLRLPSMCSDGTCDGCNFHFLWESVAACPLCSASDYHTFVSSCVAGIQKTTYMWREPKLCSGGISLPEQRVTICKTIDFWLKVGISAGTCTAILLTVLTCYFWKKNQKLEYKYSKLVMNATLKDCDLPAADSCAIMEGEDVEDDFIFTSKKSLFGKIKSFTSKRTPDGFDSVPLKTSSGGPDMDM",binding,[1],binds
same,binding,[2],binds

# Results are given in words; binding and its absence hold for the method and conditions named. In cells and extracts the contact can be indirect. Binding calls can cover weak binding; strength is not graded here.
